Measured values published in patent US8815919B2, “Oxadiazole derivatives” (Merck Serono SA, priority 2009, dated 2014).
The match of structure and compound is tentative.

Protein sequences, listed by entry. Tags and fused reporters are not part of them.
UniProt P21453, whole entry: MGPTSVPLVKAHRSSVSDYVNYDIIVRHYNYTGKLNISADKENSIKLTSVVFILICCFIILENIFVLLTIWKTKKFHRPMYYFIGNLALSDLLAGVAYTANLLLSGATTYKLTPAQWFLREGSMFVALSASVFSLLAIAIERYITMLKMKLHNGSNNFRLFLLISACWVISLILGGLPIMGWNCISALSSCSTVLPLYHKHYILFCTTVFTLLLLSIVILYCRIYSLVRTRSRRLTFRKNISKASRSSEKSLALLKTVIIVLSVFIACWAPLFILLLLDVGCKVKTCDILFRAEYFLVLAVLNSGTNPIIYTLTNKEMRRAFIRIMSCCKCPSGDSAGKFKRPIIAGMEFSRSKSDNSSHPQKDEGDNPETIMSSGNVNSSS
UniProt Q99500, whole entry: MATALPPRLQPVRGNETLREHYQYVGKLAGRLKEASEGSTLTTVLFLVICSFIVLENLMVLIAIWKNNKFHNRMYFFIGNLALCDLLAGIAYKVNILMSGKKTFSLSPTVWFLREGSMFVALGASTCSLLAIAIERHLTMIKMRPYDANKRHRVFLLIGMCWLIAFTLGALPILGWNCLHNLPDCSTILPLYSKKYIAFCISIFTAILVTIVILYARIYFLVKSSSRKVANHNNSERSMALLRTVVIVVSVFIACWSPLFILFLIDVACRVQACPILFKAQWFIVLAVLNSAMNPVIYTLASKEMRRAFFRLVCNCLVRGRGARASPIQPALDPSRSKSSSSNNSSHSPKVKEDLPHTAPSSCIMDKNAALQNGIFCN

Assays:
S1P1 [1] = molecular target: T1, S1P1 (Homo sapiens, UniProt P21453); assay: S1P1 internalization assay in S1P1-U2OS cells (S1P1-EGFP), cell imaging; details: read-out: S1P1 Internalization EC50, 1 hour incubation, tested form: HCl
S1P3 = S1P3 (Homo sapiens, UniProt Q99500); assay: 35S-GTPγS binding on membranes of CHO cells expressing S1P3; details: read-out: S1P3/GTPG EC50, tested form: HCl
S1P1 [2] = molecular target: T1, S1P1; assay: Receptor binding assay, [33P]sphingosine 1-phosphate competition, S1P1 membranes, WGA SPA beads; details: read-out: S1P1 binding Ki (M) (96 well-plate), tested form: HCl
S1P1 [3] = molecular target: T1, S1P1; assay: 35S-GTPγS binding on membranes of CHO cells expressing S1P1; details: read-out: S1P1/GTPG EC50, tested form: HCl

CCc1ccccc1-c1ccc(-c2nc(-c3cccc(CN(C)CCC(=O)O)c3)no2)cc1COC
EC50 (S1P1 [1]): 3.13 nM | EC50 (S1P3): 317 nM | Ki (S1P1 [2]): 4.2e-10 M | EC50 (S1P1 [3]): 0.893 nM
